{
  "source": "patent US20240041861A1",
  "about": "“COMPOSITIONS AND METHODS FOR TREATMENT AND PROPHYLAXIS OF VIRAL INFECTIONS” (priority 2020, published 2024)",
  "system": "rVSV-SARS-CoV-2",
  "assay_type": "cell-based",
  "note": "At least one structure is not confirmed: it was looked up by name or label, or the drawing left a doubt.",
  "data": [
    {"smiles": "CCC(CC)COC(=O)[C@H](C)N[P@](=O)(OC[C@H]1O[C@@](C#N)(c2ccc3c(N)ncnn23)[C@H](O)[C@@H]1O)Oc1ccccc1", "note": "[Remdesivir]", "values": [
      {"measurement": "effect on cellular entry", "value": "did not show any effect"}
    ]}
  ]
}
